Measurements published in publication PMC9635984 (Bioorganic & medicinal chemistry letters, 2022).

Tests used:
Type in all cases: cell-based
[1] = test system: MDA-MB-231 breast cancer cells; experiment: In vitro antitumor activity against breast cancer cell line MDA-MB-231; conditions: Homo sapiens, MDA-MB-231, read-out: IC50 (μM) MDA-MB-231, MDA-MB-231 breast cancer cell line
[2] = test system: Hela human cervical cancer cells; experiment: In vitro antitumor activity against cervical cancer cell line HeLa; conditions: read-out: IC50 (μM) Hela
[3] = test system: human umbilical vein endothelial cells (HUVEC); experiment: In vitro cytotoxicity assay on HUVEC; conditions: read-out: IC50 (μM) HUVEC

IC50 [1]: 3.52 µM
IC50 [2]: 4.52 µM
Compound: O=C(CCCCCCC(=O)Nc1ccccc1)NO [SAHA, vorinostat]
IC50 [3]: 26.4 µM
